From paper PMC9170038, “Crowdsourced RNA design discovers diverse, reversible, efficient, self-contained molecular switches”
Protein sequences can lack the tags named with them.

Target: T1, MS2 coat protein, dlFG mutant del68-81insG (Escherichia phage MS2) (UniProt P03612)
T1 sequence (looked up, limits assumed): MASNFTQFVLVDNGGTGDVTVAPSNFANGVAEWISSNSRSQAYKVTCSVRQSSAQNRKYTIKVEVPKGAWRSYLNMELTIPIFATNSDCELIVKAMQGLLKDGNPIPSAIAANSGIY
Test: binding assay
Settings: 4 mM Mg2+, FMN 200 uM; RNA-MaP array; 100 mM Tris-HCl pH 7.5, 80 mM KCl, 4 mM MgCl2, 0.1 mg/mL BSA, 1 mM DTT, 0.01 mg/mL yeast tRNA, 0.01% Tween-20; protein 1.5 nM to 3 uM; 37 C (Table S3); purified recombinant protein

Kd, > 3000 nM:
GGAAACUACGAGAAGGACAUGUGGUCCUUCAGUUACAUGAGGAUCACCCAUGUAGGAUAUCGUAGUUUCAGGAUCGUGAGAUCU [Eterna 6452587 (Inverted Small Loop Exclusion NG 1)], GGACUGGACUAGAAGGGUGAUGCGCUCGCAGACACAGGAUAUAGUCACAUGAGGAUCACCCAUGUCGGUCCAAGUGAAGAAACU [Eterna 6425259 (Inverted Same State NG 1)], UAGGACUUCGUAGGAUAUGUAUUUGAUUUCUACAUGAGGAUCACCCAUGUUUGCAUUUUUUUUUGACAGAAGGACGUGGUCCUA [Eterna 6431119 (Same State NG 2)]

Same assay, conditions: 4 mM Mg2+, L-tryptophan 2.4 mM; RNA-MaP array; 100 mM Tris-HCl pH 7.5, 80 mM KCl, 4 mM MgCl2, 0.1 mg/mL BSA, 1 mM DTT, 0.01 mg/mL yeast tRNA, 0.01% Tween-20; protein 1.5 nM to 3 uM; 37 C (Table S3); purified recombinant protein

Kd, > 3000 nM:
UUAUAAGUACCGGUCCUCAGAUCCUCAUGACGAGGACCGGUACGGCCGCCACUCGAAACAUGAGGAUCACCCAUGUAAUAAUACC [Eterna 7639013 (Exclusion - Tryptophan A)]

Same assay, conditions: 4 mM Mg2+, no ligand; RNA-MaP array; 100 mM Tris-HCl pH 7.5, 80 mM KCl, 4 mM MgCl2, 0.1 mg/mL BSA, 1 mM DTT, 0.01 mg/mL yeast tRNA, 0.01% Tween-20; protein 1.5 nM to 3 uM; 37 C (Table S3); purified recombinant protein

Kd, > 3000 nM:
ACCGACACUUACAUGAGGAUCACCCAUGUGUGUAAUCGGACACAGGAUAUCCAUGGUAAGUAUCGGGAGAAGGGUGGAAAGAAA [Eterna 6148933 (Same State NG 3)], CCCUUUAGAAAAGGGACAUGAGGAUCACCCAUGUAGGCUGCACAGGAUAUCGAUCGGAGGCGGUACGAGAAGGGUGAUGUCAUU [Eterna 6149047 (Same State NG 3)], CCUCAUGUGGUGCUGCACAUGAGAGGUGAUACCAGCAUCGAAAGAUGCCCUUGGCAGCACCAACAUGAGGAUCACCCAUGUAAUA [Eterna 7709796 (Same State - Theophylline A)], UUGGGACUAUCAGGAUAUGGUGUAGCCCAGUAAAGGACAUGAGGAUCACCCAUGUACCAUUGGUACCAGAAGGGAUGAUCCUAC [Eterna 6461334 (Same State NG 2)], UUUACAUGAGGAUCACCCAUGUGCCAUGAUACCAGACAUGAAAAUGUCCCUUGGCAGCAUGAGUGAUGCAUCCGAAAGGAUGUUU [Eterna 7610324 (Same State - Theophylline A)]
